# Source: PubChem BioAssay AID1159584 (Peter MacCallum Cancer Centre, 2016)
# Screen: 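Genes whose loss is lethal only together with E-cadherin loss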 (primary screen)
# Cell system: human MCF10A breast epithelial cells, parental and CDH1-null
# Reagent: siRNA against human genes
# Read-out: 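ATP luminescence (CellTiter-Glo) viability per line relative to mean mock wells over all plates, and the ratio of CDH1-null to parental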
# Scale: CDH1-null / parental viability ratio: higher = CDH1-null cells survive relatively better than parental
# The deposit covers about 18,000 reagents; shown is a part drawn at random. Further read-outs or replicates are left out here. Not given: the amount of reagent, the time to read-out.
CDH1-null / parental viability ratio,Gene
1.04,MEIS1
1.19,IFITM1
1.13,BTBD3
0.81,SH2B2
1.13,KYNU
0.93,PRPF19
0.86,TFAP2C
1.03,LONP2
0.8,MISO1
1.18,ATP8A1
0.97,TAB3
1.35,MBOAT1
1.01,CALR

Next part, starting with the last 2 of the part before.
CDH1-null / parental viability ratio,Gene
1.35,MBOAT1
1.01,CALR
1.04,CD6
1.07,CD96
0.66,BCAM
1.38,GPR176
1.2,STAG2
0.8,TP53INP2
1.11,MYO1F
1.06,NCOR2
1.07,ACTN4
1.01,SAMD5
1.17,EME2
1.23,MED20
1.15,PCDHGB6
1.04,SGTA
1.23,DDX54
